Results are given in words; binding and its absence hold for the method and conditions named. Binding seen in cells or lysates may run through a third protein. A yes stands for co-enrichment or nearness to the bait. Other partners may have been found. For some assays here: Sequences can lack the tags named with a protein.
Legend:
[1] = target: p97-E578Q-Strep (dominant-negative, substrate-trapping p97 variant) (UniProt P55072); test: affinity purification with mass spectrometry; triplex SILAC; DOX-induced p97-E578Q-Strep pulled down with Strep-Tactin beads from benzonase-treated nuclear/chromatin fractions of HEK293 cells after 10 Gy IR, recovery over 8 h
HA-MRE11 = target: T1, HA-MRE11 (UniProt P49959); test: affinity purification with mass spectrometry; HA-MRE11 pulled down with HA-conjugated magnetic beads from lysate of transfected T24 cells (5 Gy IR, 4 h recovery); washes with 0.5 M NaCl, elution with HA peptide; MASCOT
T1 sequence: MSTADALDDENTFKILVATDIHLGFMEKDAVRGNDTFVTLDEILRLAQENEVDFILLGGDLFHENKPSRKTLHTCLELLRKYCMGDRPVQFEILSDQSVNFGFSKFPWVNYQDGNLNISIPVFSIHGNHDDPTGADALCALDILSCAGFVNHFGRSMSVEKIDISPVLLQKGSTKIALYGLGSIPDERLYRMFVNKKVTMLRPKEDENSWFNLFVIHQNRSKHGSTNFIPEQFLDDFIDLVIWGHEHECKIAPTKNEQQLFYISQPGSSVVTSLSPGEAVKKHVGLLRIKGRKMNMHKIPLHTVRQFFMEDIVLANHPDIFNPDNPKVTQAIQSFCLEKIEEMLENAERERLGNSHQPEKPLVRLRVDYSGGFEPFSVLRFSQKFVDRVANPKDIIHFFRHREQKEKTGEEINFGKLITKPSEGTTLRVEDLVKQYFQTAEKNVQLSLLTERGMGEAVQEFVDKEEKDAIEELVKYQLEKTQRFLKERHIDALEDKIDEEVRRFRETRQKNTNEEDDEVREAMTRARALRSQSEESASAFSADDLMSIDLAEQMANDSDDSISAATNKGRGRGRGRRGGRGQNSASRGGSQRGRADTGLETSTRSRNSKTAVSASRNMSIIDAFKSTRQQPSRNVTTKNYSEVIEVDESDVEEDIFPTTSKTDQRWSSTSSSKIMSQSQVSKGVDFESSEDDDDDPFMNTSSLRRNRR

Amino acid sequences for entries named in this document (tags omitted). A change or cut given only in a name is not applied to a line headed by its entry. Chains listed by the source or under a name are the forms on record and can include a tag or linker.
p97-E578Q-Strep (P55072, form named): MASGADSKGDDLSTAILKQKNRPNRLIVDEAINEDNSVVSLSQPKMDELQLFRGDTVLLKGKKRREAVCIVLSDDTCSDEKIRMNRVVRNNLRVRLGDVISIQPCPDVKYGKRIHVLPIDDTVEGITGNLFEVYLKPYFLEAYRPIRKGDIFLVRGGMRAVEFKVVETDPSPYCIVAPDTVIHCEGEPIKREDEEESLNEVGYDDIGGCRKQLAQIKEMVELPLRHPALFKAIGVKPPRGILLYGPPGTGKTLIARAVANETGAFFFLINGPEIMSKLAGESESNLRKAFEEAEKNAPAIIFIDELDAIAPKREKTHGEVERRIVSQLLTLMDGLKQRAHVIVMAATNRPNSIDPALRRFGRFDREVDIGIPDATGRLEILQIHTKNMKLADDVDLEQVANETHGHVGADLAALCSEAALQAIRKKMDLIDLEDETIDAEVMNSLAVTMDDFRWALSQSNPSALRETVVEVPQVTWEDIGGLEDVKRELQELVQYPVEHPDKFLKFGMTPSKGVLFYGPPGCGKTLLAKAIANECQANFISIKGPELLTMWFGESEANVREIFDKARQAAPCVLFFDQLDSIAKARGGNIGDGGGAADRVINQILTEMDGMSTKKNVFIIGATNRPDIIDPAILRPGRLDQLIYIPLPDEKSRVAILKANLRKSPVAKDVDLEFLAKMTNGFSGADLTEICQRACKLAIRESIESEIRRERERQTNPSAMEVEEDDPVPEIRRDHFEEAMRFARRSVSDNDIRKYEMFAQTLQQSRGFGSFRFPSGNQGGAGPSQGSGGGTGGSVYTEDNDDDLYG
UniProt Q92878: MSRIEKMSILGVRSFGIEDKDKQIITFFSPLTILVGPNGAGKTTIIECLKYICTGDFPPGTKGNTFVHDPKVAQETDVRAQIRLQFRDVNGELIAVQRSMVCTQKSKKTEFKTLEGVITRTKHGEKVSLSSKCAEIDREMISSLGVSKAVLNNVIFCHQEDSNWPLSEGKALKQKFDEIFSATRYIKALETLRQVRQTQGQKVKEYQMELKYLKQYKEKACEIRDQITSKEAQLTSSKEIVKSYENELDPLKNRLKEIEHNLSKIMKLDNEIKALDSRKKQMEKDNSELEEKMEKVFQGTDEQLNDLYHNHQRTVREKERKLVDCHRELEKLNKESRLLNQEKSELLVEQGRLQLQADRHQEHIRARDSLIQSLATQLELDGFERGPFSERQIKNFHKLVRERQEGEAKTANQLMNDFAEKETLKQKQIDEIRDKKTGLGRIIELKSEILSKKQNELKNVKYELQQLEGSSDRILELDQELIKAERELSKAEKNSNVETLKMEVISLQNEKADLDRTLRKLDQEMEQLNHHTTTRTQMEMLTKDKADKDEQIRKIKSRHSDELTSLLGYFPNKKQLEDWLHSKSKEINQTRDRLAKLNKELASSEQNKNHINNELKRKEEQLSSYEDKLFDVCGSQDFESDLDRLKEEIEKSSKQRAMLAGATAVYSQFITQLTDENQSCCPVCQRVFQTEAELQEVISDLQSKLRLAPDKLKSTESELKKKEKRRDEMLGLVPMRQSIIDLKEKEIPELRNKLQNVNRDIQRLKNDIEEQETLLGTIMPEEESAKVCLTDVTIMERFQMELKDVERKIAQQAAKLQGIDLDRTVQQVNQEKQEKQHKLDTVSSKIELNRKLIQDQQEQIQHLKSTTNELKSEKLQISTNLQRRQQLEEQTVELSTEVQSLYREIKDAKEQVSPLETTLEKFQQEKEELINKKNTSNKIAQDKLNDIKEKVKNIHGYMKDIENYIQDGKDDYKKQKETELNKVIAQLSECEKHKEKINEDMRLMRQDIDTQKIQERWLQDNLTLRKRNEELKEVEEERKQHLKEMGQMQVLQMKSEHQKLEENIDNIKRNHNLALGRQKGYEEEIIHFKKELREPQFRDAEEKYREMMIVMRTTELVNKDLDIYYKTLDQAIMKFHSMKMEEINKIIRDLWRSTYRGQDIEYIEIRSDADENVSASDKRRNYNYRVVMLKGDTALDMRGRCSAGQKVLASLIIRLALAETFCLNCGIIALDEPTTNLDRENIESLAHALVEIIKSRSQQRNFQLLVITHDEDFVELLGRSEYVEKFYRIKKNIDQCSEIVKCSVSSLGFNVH

RAD50 (endogenous, HEK293) (from UniProt Q92878 1-1312)
binding [1]: binds

p97 (endogenous, T24) (from UniProt P55072 1-806) (enzyme)
binding (HA-MRE11): binds

Reference: publication PMC8170441
